# Test results: article PMC4742970 (Nature Communications, 2016)
# These are yes or no findings as the source states them, for the method shown. Some entries that bind do so weakly or less than the wild type. Sequences can lack the tags named with a protein.
# B1: Msh6, expressed in S. cerevisiae (protein, UniProt Q03834 1-1242)
# chain: MAPATPKTSKTAHFENGSTSSQKKMKQSSLLSFFSKQVPSGTPSKKVQKPTPATLENTATDKITKNPQGGKTGKLFVDVDEDNDLTIAEETVSTVRSDIMHSQEPQSDTMLNSNTTEPKSTTTDEDLSSSQSRRNHKRRVNYAESDDDDSDTTFTAKRKKGKVVDSESDEDEYLPDKNDGDEDDDIADDKEDIKGELAEDSGDDDDLISLAETTSKKKFSYNTSHSSSPFTRNISRDNSKKKSRPNQAPSRSYNPSHSQPSATSKSSKFNKQNEERYQWLVDERDAQRRPKSDPEYDPRTLYIPSSAWNKFTPFEKQYWEIKSKMWDCIVFFKKGKFFELYEKDALLANALFDLKIAGGGRANMQLAGIPEMSFEYWAAQFIQMGYKVAKVDQRESMLAKEMREGSKGIVKRELQCILTSGTLTDGDMLHSDLATFCLAIREEPGNFYNETQLDSSTIVQKLNTKIFGAAFIDTATGELQMLEFEDDSECTKLDTLMSQVRPMEVVMERNNLSTLANKIVKFNSAPNAIFNEVKAGEEFYDCDKTYAEIISSEYFSTEEDWPEVLKSYYDTGKKVGFSAFGGLLYYLKWLKLDKNLISMKNIKEYDFVKSQHSMVLDGITLQNLEIFSNSFDGSDKGTLFKLFNRAITPMGKRMMKKWLMHPLLRKNDIESRLDSVDSLLQDITLREQLEITFSKLPDLERMLARIHSRTIKVKDFEKVITAFETIIELQDSLKNNDLKGDVSKYISSFPEGLVEAVKSWTNAFERQKAINENIIVPQRGFDIEFDKSMDRIQELEDELMEILMTYRKQFKCSNIQYKDSGKEIYTIEIPISATKNVPSNWVQMAANKTYKRYYSDEVRALARSMAEAKEIHKTLEEDLKNRLCQKFDAHYNTIWMPTIQAISNIDCLLAITRTSEYLGAPSCRPTIVDEVDSKTNTQLNGFLKFKSLRHPCFNLGATTAKDFIPNDIELGKEQPRLGLLTGANAAGKSTILRMACIAVIMAQMGCYVPCESAVLTPIDRIMTRLGANDNIMQGKSTFFVELAETKKILDMATNRSLLVVDELGRGGSSSDGFAIAESVLHHVATHIQSLGFFATHYGTLASSFKHHPQVRPLKMSILVDEATRNVTFLYKMLEGQSEGSFGMHVASMCGISKEIIDNAQIAADNLEHTSRLVKERDLAANNLNGEVVSVPGGLQSDFVRIAYGDGLKNTKLGSGEGVLNYDWNIKRNVLKSLFSIIDDLQS
# B2: Msh6, expressed in E. coli (protein, UniProt Q03834 1-1242)
# chain: B1 chain
# Legend:
# [1] = molecular target: T1, Msh2HA (Msh2 subunit with an HA epitope tag), expressed in S. cerevisiae (S. cerevisiae) (UniProt P25847); assay: co-purification by chromatography; the two subunits overexpressed in S. cerevisiae and purified together by sequential ion exchange chromatography and ssDNA-affinity chromatography
# T1 sequence: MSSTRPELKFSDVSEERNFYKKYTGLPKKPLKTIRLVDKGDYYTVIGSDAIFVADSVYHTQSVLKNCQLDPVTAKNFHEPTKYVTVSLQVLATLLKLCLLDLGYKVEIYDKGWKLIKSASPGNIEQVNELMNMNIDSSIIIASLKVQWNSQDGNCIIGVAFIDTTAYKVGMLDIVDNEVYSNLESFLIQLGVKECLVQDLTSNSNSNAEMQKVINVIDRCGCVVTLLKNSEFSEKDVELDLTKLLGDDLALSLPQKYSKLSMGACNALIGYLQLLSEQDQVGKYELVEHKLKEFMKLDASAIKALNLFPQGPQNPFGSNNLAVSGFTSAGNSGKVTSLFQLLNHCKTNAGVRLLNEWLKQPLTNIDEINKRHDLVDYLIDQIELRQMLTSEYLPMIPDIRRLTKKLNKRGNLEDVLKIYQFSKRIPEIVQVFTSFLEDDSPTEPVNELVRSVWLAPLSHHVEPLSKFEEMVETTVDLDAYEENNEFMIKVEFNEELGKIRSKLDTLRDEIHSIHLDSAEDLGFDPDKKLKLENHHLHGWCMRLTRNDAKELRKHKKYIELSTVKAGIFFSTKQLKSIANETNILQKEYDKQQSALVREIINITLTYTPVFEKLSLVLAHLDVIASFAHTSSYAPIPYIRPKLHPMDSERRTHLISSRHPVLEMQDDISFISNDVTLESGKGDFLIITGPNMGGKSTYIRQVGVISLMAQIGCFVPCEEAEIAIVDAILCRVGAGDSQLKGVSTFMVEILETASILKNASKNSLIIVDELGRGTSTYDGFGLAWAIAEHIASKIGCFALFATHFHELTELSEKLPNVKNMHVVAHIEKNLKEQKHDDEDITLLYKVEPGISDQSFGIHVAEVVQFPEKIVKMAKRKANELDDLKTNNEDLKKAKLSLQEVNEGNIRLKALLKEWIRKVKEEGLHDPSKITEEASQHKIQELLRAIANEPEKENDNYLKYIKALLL
# [2] = molecular target: T2, Msh2HA (Msh2 subunit with an HA epitope tag), expressed in E. coli (S. cerevisiae) (UniProt P25847); assay: co-purification by chromatography; the two subunits expressed in E. coli and purified together over QFF, ssDNA cellulose and QFF columns
# T2 sequence: T1 sequence
Binder,binding [1],binding [2]
B1,binds,–
B2,–,binds
